According to paper PMC11350264:
Positions count from the first letter of the chain named. These are yes or no findings as the source states them, for the method shown. Some results given as binding are weak or reduced against the parent protein; the word gives no strength. Tags and fused reporters may be left off the sequences shown.

Protein sequences, listed by entry. Tags and fused reporters are not part of them. Lines headed by an entry give the natural chain unless they say otherwise; changes in a name come on top.
UniProt Q5VMP0: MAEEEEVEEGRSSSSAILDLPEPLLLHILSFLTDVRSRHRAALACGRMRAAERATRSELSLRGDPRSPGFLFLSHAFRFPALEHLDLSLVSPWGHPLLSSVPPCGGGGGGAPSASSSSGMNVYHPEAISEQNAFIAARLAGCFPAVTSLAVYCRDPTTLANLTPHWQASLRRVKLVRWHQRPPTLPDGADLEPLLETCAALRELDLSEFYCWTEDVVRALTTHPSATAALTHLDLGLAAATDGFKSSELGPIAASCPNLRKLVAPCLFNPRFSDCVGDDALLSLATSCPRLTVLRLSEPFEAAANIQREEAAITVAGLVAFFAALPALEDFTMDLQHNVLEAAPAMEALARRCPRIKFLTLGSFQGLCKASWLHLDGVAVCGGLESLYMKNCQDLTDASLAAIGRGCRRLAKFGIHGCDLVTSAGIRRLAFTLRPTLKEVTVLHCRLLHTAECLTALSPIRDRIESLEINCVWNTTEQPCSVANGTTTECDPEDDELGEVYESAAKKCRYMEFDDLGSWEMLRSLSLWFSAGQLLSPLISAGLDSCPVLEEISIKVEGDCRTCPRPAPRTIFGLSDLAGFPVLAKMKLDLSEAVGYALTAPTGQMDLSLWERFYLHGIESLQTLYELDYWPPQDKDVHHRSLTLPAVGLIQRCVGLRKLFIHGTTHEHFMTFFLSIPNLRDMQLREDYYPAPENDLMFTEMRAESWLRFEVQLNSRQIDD

Columns and labels:
[1] = target: T1, GST-OsKAI2 (rice KAI2 receptor, wildtype, GST fusion) (rice (Oryza sativa)) (UniProt Q10J20); experiment: pull-down; GST-KAI2 or GST-KAI2^int on GST beads (blocked with BSA) incubated with purified His-MSB OsD3-ASK1 and 100 μM (−)-GR24 for 30 min on ice; wash buffer 50 mM Tris, 150 mM NaCl, 1% glycerol, 1 mM TCEP; eluted with reduced glutathione; Western blot with anti-His, band intensity quantified; both …
T1 sequence: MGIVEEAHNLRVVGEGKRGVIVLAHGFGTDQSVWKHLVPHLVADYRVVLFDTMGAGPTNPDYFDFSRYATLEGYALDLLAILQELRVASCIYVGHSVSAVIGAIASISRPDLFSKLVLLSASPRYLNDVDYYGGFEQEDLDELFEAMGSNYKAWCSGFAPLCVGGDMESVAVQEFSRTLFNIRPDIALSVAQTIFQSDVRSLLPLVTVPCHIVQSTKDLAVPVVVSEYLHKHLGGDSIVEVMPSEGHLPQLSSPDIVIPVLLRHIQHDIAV

[2] = target: T2, GST-OsKAI2^int (rice KAI2 with D30A, D51A, E174A, N181A, GST fusion) (rice (Oryza sativa)) (UniProt Q10J20); experiment: as above
T2 sequence: T1 sequence with D30A, D51A, E174A, N181A

binding [1]: binds
binding [2]: binds
Substance: HisMSB-OsD3-ASK1 (rice F-box protein DWARF3 in complex with ASK1) (from UniProt Q5VMP0 1-720; Q39255 1-160)
